Laboratory results reported in PubChem BioAssay AID2685 (National Center for Advancing Translational Sciences (NCATS), 2010).
The other results are listed elsewhere or left out. Further columns of the screen follow, without active or inactive calls. Most of these compounds were active or inconclusive in the main read-out, so they are no random draw. Words in brackets tell the shape of the fitted curve; partial curves, single points and poor fits give uncertain potencies.

Assay: qHTS Assay for Lipid Storage Modulators in Drosophila S3 Cells;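 on cell number change: cells counted by Cell Tracker Red CMTPX staining in the red channel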
Conditions: BODIPY lipid droplet fluorescence, 18-24 h; for cell number change: measured here: cell count max response, cells fed with added oleic acid
Method in brief: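 Drosophila S3 cells got compounds at several concentrations plus oleic acid (400 uM solution). Laser-scanning cytometry with 488 nm excitation read lipid droplets at 500-530 nm and cells at 575-640 nm. Percent activity was relative to 20 uM Triacsin C.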

[1] = measured here: lipid fluorescence (Fed channel) AC50, cells fed with added oleic acid
[2] = measured here: cell number channel AC50, cells fed with added oleic acid

O=C(NCC(c1cccnc1)N1CCN(c2ccccc2F)CC1)OCc1ccccc1 (stereo not drawn)
cell number change: -6.24% | AC50 [1]: 0.517 µM [rising, full curve, poor fit]

Cc1cc(=O)oc2c(C)c(OCC(=O)N3CCC(C(=O)O)CC3)ccc12
cell number change: 8.55% | AC50 [1]: 5.8 µM [rising, full curve, poor fit]

COc1cc(C2c3c(-c4ccccc4O)n[nH]c3C(=O)N2Cc2ccco2)cc(OC)c1OC (stereo not drawn)
cell number change: -7.61% | AC50 [2]: 0.651 µM [falling, single point]

CN(c1ccccc1)S(=O)(=O)c1nnc(NC(=O)c2ccco2)s1
cell number change: -24.8% | AC50 [2]: 6.51 µM [falling, single point]

NS(=O)(=O)c1ccc(NC(=O)COC(=O)CNC(=O)C23CC4CC(CC(C4)C2)C3)cc1
cell number change: -24.1%

O=C(Nc1cccc2ccccc12)N1CCN(Cc2ccc3c(c2)OCO3)CC1
AC50 [1]: 0.92 µM [rising, partial curve]

O=C(CCc1ccccc1)NNC(=O)COc1ccc(Br)cc1
cell number change: 33% | AC50 [2]: 36.6 µM [rising, partial curve, poor fit]

Clc1ccccc1CSc1nnc(-c2cccnc2)n1Cc1ccco1
cell number change: 1.42% | AC50 [2]: 0.517 µM [falling, full curve, poor fit] | AC50 [1]: 5.8 µM [rising, full curve]

Fc1cc(Cl)ccc1NC1=NCCCCC1
cell number change: 69.4% | AC50 [2]: 29.1 µM [rising, single point]

COc1cccc(-c2nnc(SCC(=O)OC(C)C)n2Cc2ccco2)c1
cell number change: -17.3% | AC50 [1]: 16.4 µM [rising, single point]

CCOC(=O)C1CCN(C(=O)c2cc(C(C)(C)C)nn2Cc2ccccc2)CC1
cell number change: -19.1% | AC50 [1]: 20.6 µM [falling, single point]

N#Cc1cccc(C#N)c1Oc1ccc(N)cc1
AC50 [2]: 0.92 µM [rising, partial curve, poor fit] | AC50 [1]: 2.59 µM [rising, partial curve]

COc1ccc(NC(=O)C2CCCN(S(=O)(=O)c3cccs3)C2)cc1OC (stereo not drawn)
cell number change: 103% | AC50 [2]: 2.59 µM [rising, full curve] | AC50 [1]: 1.46 µM [rising, partial curve]

CC12CCC(C(=O)O)(c3nc(C#N)c(C#N)nc31)C2(C)C (stereo not drawn)
cell number change: -16.1% | AC50 [1]: 29.1 µM [rising, single point]

COc1ccc(N2C(=O)CCC(C(=O)NCc3cccnc3)C2c2ccc(OC)c(OC)c2)cc1 (stereo not drawn)
cell number change: 38.8% | AC50 [2]: 16.4 µM [rising, single point]

CCOC(=O)C1=C(C)NC(C)=C(C(=O)OCC)C1c1cccs1
cell number change: -15.8% | AC50 [1]: 7.31 µM [falling, partial curve]

COc1ccc(NC(=O)c2ccco2)c(NC(=O)Cc2cccs2)c1
cell number change: 74.9% | AC50 [1]: 0.58 µM [rising, single point]

COc1ccccc1C(=O)NCCC(=O)Nc1ncccc1C
cell number change: 4.32%

CCCC(C(=O)NCc1ccco1)N(C(=O)CNS(=O)(=O)c1ccccc1)C1CCCC1 (stereo not drawn)
cell number change: 52.1% | AC50 [2]: 9.2 µM [rising, partial curve, poor fit]

NS(=O)(=O)c1ccc(NC(=O)CN2CCCCC2)cc1
cell number change: -48.5% | AC50 [2]: 5.8 µM [falling, full curve] | AC50 [1]: 4.11 µM [falling, single point]

CC1CCC(NC(=O)CCNS(=O)(=O)c2ccccc2)CC1 (stereo not drawn)
cell number change: 31.4%

CCN(CC)S(=O)(=O)c1ccc(C(=O)NCc2ccc3c(c2)cc(C)n3C)cc1
cell number change: 32.6% | AC50 [2]: 11.6 µM [rising, partial curve]

CCc1ccccc1NC(=O)C1=CC(c2cccs2)=NS(=O)(=O)N1C
cell number change: -39.2% | AC50 [2]: 7.31 µM [falling, partial curve] | AC50 [1]: 0.82 µM [falling, full curve]

Cc1cccc(Oc2ccc3c(c2)cc(C(=O)O)n3C)c1
cell number change: 3.15% | AC50 [1]: 11.6 µM [rising, partial curve]

COc1ccc(-c2cn(-c3ccc(Br)cc3)c3[n+]2CCS3)cc1
cell number change: 7.3% | AC50 [1]: 5.8 µM [rising, full curve]

CN(C)c1ccc(/C=C(\NC(=O)c2ccccc2)C(=O)NCCCN2CCOCC2)cc1
cell number change: 15% | AC50 [1]: 29.1 µM [rising, single point]

Cc1nc(CN2CCC(c3ccccc3)CC2)cc(=O)[nH]1
AC50 [2]: 3.26 µM [falling, single point] | AC50 [1]: 4.11 µM [falling, single point]

Oc1ccccc1/C=N/NC(=S)NC1CC2C=CC1C2 (stereo not drawn)
cell number change: -51% | AC50 [2]: 25.9 µM [falling, single point] | AC50 [1]: 29.1 µM [falling, single point]

CC(C)/C(=N\NS(=O)(=O)c1ccc(Br)cc1)c1cccs1
cell number change: 14.7% | AC50 [2]: 0.0366 µM [falling, single point] | AC50 [1]: 0.0517 µM [falling, full curve, poor fit]

Cc1ccc(NC(=O)c2cc(-c3cccs3)nc3ccccc23)nc1
cell number change: 9.51% | AC50 [1]: 1.64 µM [rising, partial curve, poor fit]

CC1(c2ccc(OC(F)F)cc2)NC(=O)N(CC(=O)Nc2ccc(Cl)cc2F)C1=O (stereo not drawn)
cell number change: 19.4% | AC50 [1]: 0.58 µM [falling, single point]

O=C(Cc1ccc(S(=O)(=O)N2CCOCC2)s1)NCCC(c1ccccc1)c1ccccc1
cell number change: -21.2% | AC50 [2]: 2.91 µM [rising, single point] | AC50 [1]: 6.51 µM [rising, single point]

O=C(NCc1n[nH]c(=S)n1-c1cccc(C(F)(F)F)c1)c1ccc(S(=O)(=O)N2CCCCC2)cc1
cell number change: 23% | AC50 [1]: 4.11 µM [falling, full curve]

O=S(=O)(c1cccs1)N1CCC2(CC1)OCCO2
cell number change: 20.9% | AC50 [1]: 13 µM [rising, partial curve]

COc1ccc(CC(=O)NC(C)c2ccc(S(N)(=O)=O)cc2)cc1S(=O)(=O)N1CCOCC1 (stereo not drawn)
cell number change: 15.7% | AC50 [1]: 0.116 µM [rising, full curve, poor fit]

Cc1ccc2nc(NCc3ccccc3)[nH]c2c1
cell number change: -4.09% | AC50 [1]: 29.1 µM [rising, single point]

O=C(O)CCC(=O)NNC(=O)c1cccc(Br)c1
cell number change: -46.8% | AC50 [2]: 16.4 µM [falling, single point]

O=C(CCCC(=O)Nc1ccccc1Br)N/N=C/c1c(F)cccc1Cl
cell number change: 35.5% | AC50 [2]: 2.06 µM [rising, partial curve, poor fit] | AC50 [1]: 6.51 µM [rising, single point]

COc1ccc(-c2nonc2NC(=O)c2oc3ccccc3c2C)cc1OC
cell number change: 25.4%

COc1ccc2c(c1)CC[C@@H]1[C@@H]2CC[C@]2(C)[C@@H](C(C)=O)C[C@@H]12
cell number change: -11.8% | AC50 [1]: 6.51 µM [falling, single point]

COc1ccccc1NCC(=O)NNC(C)C(=O)Nc1cccc(Cl)c1 (stereo not drawn)
AC50 [2]: 0.116 µM [rising, full curve] | AC50 [1]: 0.146 µM [rising, partial curve, poor fit]

O=C(OCc1ccccn1)c1ccc(COc2ccc3ccccc3c2)o1
cell number change: 7.1% | AC50 [1]: 9.2 µM [rising, partial curve, poor fit]

COc1ccc(-c2csc3ncnc(N4CCN(c5ccccc5Cl)CC4)c23)cc1
cell number change: 75.1% | AC50 [2]: 25.9 µM [rising, partial curve] | AC50 [1]: 25.9 µM [rising, partial curve]

O=[N+]([O-])c1ccc(N2CCC(O)CC2)nc1
cell number change: -52.6% | AC50 [2]: 29.1 µM [falling, single point] | AC50 [1]: 29.1 µM [falling, single point]

COc1ccc(NC(=O)CCCNC(=O)Cn2cnc3sc(C)c(C)c3c2=O)c(OC)c1
cell number change: 22.2%

O=C(NC1CCCCCC1)c1c2c(nc3ccccc13)CCN(Cc1ccccc1)C2
AC50 [1]: 18.4 µM [rising, single point]

Cc1nc(NC2CCCC2)sc1C(=O)N(C)C
cell number change: 9.69% | AC50 [1]: 1.46 µM [falling, partial curve]

CN(C)S(=O)(=O)c1ccc(C(=O)OCC(=O)Nc2ccc3c(c2)OCO3)cc1
cell number change: 16.5%

Cn1c(=O)n(C)c2cc(NS(=O)(=O)c3ccc(C(C)(C)C)cc3)ccc21
cell number change: -40.3% | AC50 [2]: 13 µM [falling, partial curve, poor fit]

Cc1cccc(C)c1NC(=O)C1CC(=O)N(C(C)C)C1 (stereo not drawn)
cell number change: 12.7% | AC50 [1]: 14.6 µM [rising, single point]

Cn1cc(S(=O)(=O)N2CCN(C(=O)c3ccco3)CC2)c(=O)n(C)c1=O
cell number change: -4.81% | AC50 [1]: 6.51 µM [rising, single point]

O=C(O)/C=C/C(=O)N1CCN(Cc2ccc3c(c2)OCO3)CC1
cell number change: 37.8% | AC50 [2]: 10.3 µM [rising, partial curve, poor fit]

COc1cnc(-c2ccccn2)nc1Oc1ccc(F)cc1F
cell number change: -4.82% | AC50 [2]: 1.46 µM [rising, partial curve] | AC50 [1]: 2.06 µM [rising, partial curve]

CCC(=O)c1cc2c(cc1NC(=O)c1cccs1)OCCO2
cell number change: -37.5% | AC50 [2]: 1.03 µM [falling, full curve, poor fit] | AC50 [1]: 0.82 µM [rising, full curve, poor fit]

CC1CC(C)(C)CC2(C1)NC(=O)N(CC(=O)N(Cc1ccccc1)c1ccccc1)C2=O (stereo not drawn)
cell number change: -22.3% | AC50 [1]: 7.31 µM [falling, single point]

CCCNC(=O)NC(=O)CSc1cccc(C(F)(F)F)c1
cell number change: -36%

CCN(CC)S(=O)(=O)c1ccc(Cl)c(NC(=O)COC(=O)/C=C/c2cc(OC)c(OC)c(OC)c2)c1
cell number change: -33.3% | AC50 [2]: 25.9 µM [falling, single point] | AC50 [1]: 3.66 µM [rising, full curve]
